Test results published in PubChem BioAssay AID1259415 (National Center for Advancing Translational Sciences (NCATS), 2018).
Values joined by “and” are separate entries in the source; they are usually repeats but may differ in a detail not shown here. Equal values may be shown once. Out of some 410,000 compounds screened, about 18,000 (4.4%) were called active. The shares of active, inactive and inconclusive entries below differ from those in the screen. Cut-off read from the data, not from the text of the source: active = activity change below about -60%; inconclusive = no clear call, values can overlap the other calls; inactive = above about -39%.

Experiment: qHTS Assay for inhibitors of the human cytomegalovirus (HCMV)
Settings: HFF cells, HCMV-luciferase reporter, 72 h; at 57.5 µM; stronger effect = lower value
In short: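 Steps: HFFs plated, 16 h 37C; compounds added; HCMV-luciferase added to MOI 1 PFU/cell; 72 h 37C; OneGlo reagent, 5 min room temperature; luminescence read, normalized to controls.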
% is set by controls: 0 for no effect and ±100 for the full control effect.

| SMILES | activity change, negative = inhibition |
| --- | --- |
| Cc1occc1C(=O)Nc1ccc([N+](=O)[O-])cc1Br | inactive: 6.99% |
| CCN(CC)c1ccc(NC(=O)c2cnc3c(-c4ccccc4)c(C)nn3c2C)c(C)c1 | inactive: -14.1% |
| Cn1cc(S(=O)(=O)c2cccc(Cl)c2)c(=O)c2cc(F)c(N3CCN(c4ccc(F)cc4)CC3)cc21 | inactive: -39.7% |
| Cc1ccc(-c2noc(CNS(=O)(=O)c3ccc(F)cc3)n2)cc1 | inconclusive: -41.4% |
| O=C(Cc1ccccc1)N/N=C/c1ccc[nH]1 | inconclusive: -48.9% |
| O=C(Nc1sc2c(c1C(=O)O)CCCC2)c1cccc(Cl)c1 | inactive: 27.8% |
| CCN1CC(=O)Nc2cc(S(=O)(=O)N3CCOCC3)ccc21 | active: -60.4% |
| CC1C(=O)C(C)C(c2ccccc2F)NC1c1ccccc1F (stereo not drawn) | inconclusive: -42.1% |
| COc1ccc2c(c1)CCc1c(C(=O)Nc3c(C)n(C)n(-c4ccccc4)c3=O)noc1-2 | inconclusive: -41.8% |
| FC(F)(F)c1ccccc1CN1CCN(C2CCCCCC2)CC1 | inconclusive: -53.8% |
| Cc1ccc(C(=O)N2CCCC(c3ccccc3)=N2)cc1 | inconclusive: -54.7% |
| CCN(CC)CCn1c(NC(=O)c2ccc(Cl)cc2)nc2ccccc21 | inactive: 26.3% |
| CC(C)(CNC(=O)CC1C(=O)NCCN1Cc1cccc(F)c1F)N1CCOCC1 (stereo not drawn) | inconclusive: -42.1% |
| COc1ccc(C)cc1NC(=O)C(=O)c1cn(CC(=O)N2CCCC2)c2ccccc12 | inconclusive: -46.6% |
| O=c1c2oc3ccccc3c2n(Cc2cccc(Cl)c2)c(=O)n1Cc1ccco1 | inactive: -31.5% |
| C=CCN(c1ccc(C(=O)Nc2cccc([N+](=O)[O-])c2)cc1)S(C)(=O)=O | inconclusive: -41.5% |
| COc1ccc(NS(=O)(=O)c2cc(Br)cc3c2N(C(=O)C2CC2)CC3)cc1OC | inconclusive: -42.8% |
| CCCCN(CCCC)CCNC(=O)Cn1nc(C)n2c(cc3sccc32)c1=O | inactive: -6.16% |
| COc1cccc(CNC(=O)c2ccc3c(c2)c(C)c(C)n3Cc2ccccc2)c1OC | inconclusive: 0% |
| CCn1ncc(Br)c1C(=O)N(C)C12CC3CC(CC(C3)C1)C2 | inconclusive: -47.8% |
| CCN(CCCNC(=O)CCNC(=O)Cn1cnc2ccccc2c1=O)c1ccccc1 | inconclusive: -50.9% |
| C=Cc1ccc(Cn2c(C(=O)O)c(C=O)c3ccccc32)cc1 | inconclusive: -43.2% |

Arranged by SMILES length (low to high): some entries from above.

| SMILES | activity change, negative = inhibition |
| --- | --- |
| Cc1ccc(-c2noc(CNS(=O)(=O)c3ccc(F)cc3)n2)cc1 | inconclusive: -41.4% |
| COc1ccc(C)cc1NC(=O)C(=O)c1cn(CC(=O)N2CCCC2)c2ccccc12 | inconclusive: -46.6% |
| COc1ccc2c(c1)CCc1c(C(=O)Nc3c(C)n(C)n(-c4ccccc4)c3=O)noc1-2 | inconclusive: -41.8% |

Continuation.

| SMILES | activity change, negative = inhibition |
| --- | --- |
| COc1ccc(-c2cc(C(F)(F)F)nc(S(C)(=O)=O)n2)cc1 | active: -89.9% and active: -105% |
| CC(C(=O)Nc1ccc(F)c(F)c1F)N(C)Cc1cccs1 (stereo not drawn) | inconclusive: -58.8% |
| N=c1c(C(=O)NCCc2ccccc2)cc2c(=O)n3ccccc3nc2n1Cc1ccco1 | inconclusive: -55.2% |
| CC1SCC(=O)N(CC(=O)NCCc2ccccc2)C1=O (stereo not drawn) | inconclusive: -46.8% |
| CCc1ccc(C(=O)c2cn(CC(=O)NC3CCCCC3)c3nc(C)ccc3c2=O)cc1 | inactive: -5.92% |
| Cc1nc(-c2cccs2)ccc1C(=O)O | inconclusive: -42.5% |
| O=C(Nc1ccc(F)c(F)c1)c1cc(S(=O)(=O)NC2CCCCCC2)ccc1F | inconclusive: -53.3% |
| CCCN(CCC)S(=O)(=O)c1ccc2c(c1)N(CC(=O)NCc1ccc(F)cc1Cl)C(=O)CS2 | inconclusive: 0% |
| C[C@@H](C(=O)Nc1ccc2c(c1)OCCO2)n1nnc2ccccc2c1=O | inactive: 43.3% |
| O=C(O)C(Cc1ccc(Cl)cc1)Sc1nc2ccccc2[nH]1 (stereo not drawn) | inactive: -26.3% |
| COc1ccc(CN2CCN(Cc3ccccc3C(F)(F)F)CC2)c(OC)c1 | inconclusive: -58.4% |
| COc1ccc(C(=O)N2N=C(c3ccc(NS(C)(=O)=O)cc3)CC2c2cccs2)cc1 (stereo not drawn) | inconclusive: -56.5% |
| CCN1C(=O)C(=Cc2ccc(N3CCOCC3)o2)C(=O)N(CC)C1=S | inactive: 23.6% |
| O=S(=O)(NCc1cccnc1)c1cccn1-c1ncc(C(F)(F)F)cc1Cl | active: -61.2% |
| CCCCN(CC)CCCNC(=O)Cn1ncc2c3ccccc3n(Cc3ccccc3F)c2c1=O | inconclusive: -44.4% |
| CN1C(CC(O)c2ccccc2)CCCC1CC(O)c1ccccc1 (stereo not drawn) | inconclusive: -47.5% |
| O=C(C1=C[C@@H](c2ccc3c(c2)OCO3)C[C@@H](OCc2ccc(CO)cc2)O1)N1CCOCC1 | inactive: -18.1% |
| O=C(c1noc2c1CCCCC2)N1CCN(c2cccc(C(F)(F)F)c2)CC1 | active: -77.8% |
| CC(=O)N1CC(=O)N(CC(=O)Nc2ccc(Br)cc2)C1=S | inconclusive: -51.1% |
| Cc1ccc(C(=O)C=CNNC(=O)c2ccccc2)cc1 | inactive: 16.4% |
| Cn1cnc([N+](=O)[O-])c1Sc1nc(N)nc2c1ncn2C1CC(O)C(CO)O1 (stereo not drawn) | active: -82.2% |
